Results deposited as PubChem BioAssay AID602196 (INSERM, 2012).
Screen: 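Modifiers of cisplatin sensitivity in A549 cells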. System: human A549 lung cancer cells. Reagent: siRNA pair against human genes. Timing: 48 h transfection before cisplatin; time from cisplatin to read-out not stated. Treatment: cisplatin at a dose killing half of control-siRNA cells; exact dose and duration not given. Detection: 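Cisplatin cell death as a shift from the 50% death seen with control siRNA; siRNAs toxic or growth-blocking alone scored 0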. Reading the numbers: two-siRNA summed score (-2 to +2): higher = both siRNAs protect from cisplatin killing; -2 means both sensitise; mean protection from cisplatin (shift in death) and protection from cisplatin (shift in death), siRNA C and protection from cisplatin (shift in death), siRNA D: higher = protection from cisplatin killing. Active means: 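Each siRNA scores 0 if harmful alone by LDH or WST-1, otherwise +1 if it reduces and -1 if it increases cisplatin killing; a gene is active when both siRNAs agree (sum +2 or -2)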. Calls: active = both siRNAs shift cisplatin killing the same way; inactive = no consistent shift, or siRNA harmful alone.
Shown is a random part of about 23,000 reagents tested. 455 of all reagents (2%) count as active. 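Active includes both protection and sensitisation; some change values fall well beyond the stated -50 to +50 range.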 Entries without a mark were called inactive. The record does not give: the amount of reagent.

Gene | two-siRNA summed score (-2 to +2) | mean protection from cisplatin (shift in death) (%) | protection from cisplatin (shift in death), siRNA C (%) | protection from cisplatin (shift in death), siRNA D (%)
LOC440034 | 0 | 8.4 | 6.6 | 10.2
MAS1L (MAS1 proto-oncogene like, G protein-coupled receptor) | 0 | -2.8 | -9.7 | 4
H2AZ1 (H2A.Z variant histone 1) | 0 | 1 | -2.6 | 4.6
KLRG2 (killer cell lectin like receptor G2) | 0 | -12.6 | -23.3 | -2
TAF10 (TATA-box binding protein associated factor 10) | 0 | 12.3 | 17.3 | 7.3
MGC13053 (retired record) | 1 | 4.3 | -1.9 | 10.4
PFDN2 (prefoldin subunit 2) | 1 | 14.6 | 12.3 | 16.9
LOC400144 | 0 | 3.7 | -0.6 | 7.9
ACTL6B (actin like 6B) | 0 | -14.8 | -19 | -10.7
PODNL1 (podocan like 1) | 0 | -10.7 | -18.3 | -3.1
ERICH2 (glutamate rich 2) | 0 | 11 | -4.9 | 26.9
PPP1R13L (protein phosphatase 1 regulatory subunit 13 like) | 0 | 6.4 | 7.1 | 5.7
LYRM7 (LYR motif containing 7) | 1 | 13.4 | 15.6 | 11.3

Targets above whose target name starts with M or m (2):
Gene | two-siRNA summed score (-2 to +2) | mean protection from cisplatin (shift in death) (%) | protection from cisplatin (shift in death), siRNA C (%) | protection from cisplatin (shift in death), siRNA D (%)
MAS1L (MAS1 proto-oncogene like, G protein-coupled receptor) | 0 | -2.8 | -9.7 | 4
MGC13053 (retired record) | 1 | 4.3 | -1.9 | 10.4

The list goes on.
Gene | two-siRNA summed score (-2 to +2) | mean protection from cisplatin (shift in death) (%) | protection from cisplatin (shift in death), siRNA C (%) | protection from cisplatin (shift in death), siRNA D (%)
BTBD16 (BTB domain containing 16) | 1 | 11 | 2.2 | 19.8
CYP3A5 (cytochrome P450 family 3 subfamily A member 5) | 0 | -0.2 | -12.1 | 11.6
CMA1 (chymase 1) | 0 | -4.6 | -4.2 | -5
LOC401282 | 0 | 11.5 | 9.7 | 13.4
SATB2-AS1 (SATB2 antisense RNA 1) | 0 | 5.2 | 15.6 | -5.2
IQGAP3 (IQ motif containing GTPase activating protein 3) | 1 | 19.1 | 15.2 | 23
THBS2 (thrombospondin 2) | 0 | 8.6 | 8.6 | 8.5
TLL2 (tolloid like 2) | 0 | -0.2 | -6.3 | 5.9
SPON1 (spondin 1) | 1 | 17.9 | 26 | 9.7
RNF113A (ring finger protein 113A) | -1 | -11.8 | 4.5 | -28.1
